Median seed-adjusted z-score data for 68 sequences are collected here from PubChem BioAssay AID1347426 (Functional Genomics Laboratory (NCATS/FGL), 2020).

Hit rate of the full screen: of about 31,000 sequences, about 1,400 (4.5%) were called active.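 How the source made its calls: active means median seed-adjusted z-score above 1 or below -1; inactive means the rest.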 The list shows a part of the results.

The test can be described thus: Novel Modifiers of Survival Motor Neuron (SMN) Protein: Gene Identification via Genome-wide siRNA Screen.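 Further: luminescence tracks full-length SMN protein made from the SMN2 reporter.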 Conditions: HEK293T SMN2-luciferase reporter, siRNA knockdown, 72 h; actives lie on both sides. The method in brief: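 Genome-wide siRNA screen (10418 genes, 3 siRNAs each, 1 pmol per well) by reverse transfection in HEK293T cells stably carrying an SMN2-luciferase reporter; luminescence after 72 hours, normalized to negative-control siRNA, log10-transformed, MAD-scored.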
Background: In a reporter assay the amount or activity of a reporter protein is the signal.
Take AGUUCUACCUGGUCUUUGATT against HIPK4: the median seed-adjusted z-score was inactive: 0. Under AUAAACUGGUGACAACUUUTT against FABP1 stands inactive: -0.302; under CCAUAUCAGUGCAACGAGUTT against ZNF624, inactive: 0.378; under GAACUAAGUAUUUCGGAAATT against MPHOSPH10, inactive: 0.374. Under CCCACCUGCUUAUCCUCUATT against ABCB8 stands inactive: -0.558.

For GGUCGAGUAUCUCAGAAAATT against SFRS9, the median seed-adjusted z-score is inactive: -0.144.

Take GGUCAUCCUCGAUUUUUCATT against GAD1: the median seed-adjusted z-score is inactive: 0.101. Take GCUCCAAAUUGGUUGUAUUTT against PRKAG1: the median seed-adjusted z-score is inactive: 0.431. As for GAACCCAGAGGAUACCUAUTT against REM2, the median seed-adjusted z-score was inactive: 0.109. Under GGACAGCACCAAGACAAGATT against SPRY1 stands inactive: 0.642; under GGGACAACUUUGUUAUCAUTT against AP1M1, inactive: 0.42.

Consider GACUUGAAGUCACUGAUGATT against PPM1A, for which the median seed-adjusted z-score is inactive: 0.0153. Under GCAAUUGAAUAUUGGAGUUTT against MED17 stands active: -2.06; under GAACUAUGACCGAGAAGUATT against POU6F2, inactive: 0.416.

Consider GACCGUUUAAUGAAGCUUUTT against SPTLC2, for which the median seed-adjusted z-score was inactive: 0. Under GCAUCAACGCGAACAGAGATT against PRDM16 stands inactive: 0.185. Under GGAUCAAGCACCACUCUUATT against SORBS2 stands inactive: 0.0391. Take CUGUAUCCCUUGGAAAGCATT against OVGP1: the median seed-adjusted z-score is inactive: -0.642. Under CUACAGUCGGGAACAUGAATT against CLK3 stands active: -1.11; under AGCUUUUGAUCUGACAGUATT against CCNA1, inactive: -0.203; under CACCUGCCGUUCAUCUAUATT against GYG2, inactive: 0.113. Under GACCUAAAGAAGGAGAUUATT against CNOT3 stands inactive: 0.872; under GAAGCAGAGAUAUACCAGATT against ACVR1B, inactive: 0.201; under GGGUAACCACUGACAUUCATT against SUPT5H, active: -4.02. With CGGUUACGAUCAGAAUGCATT against CYFIP1, the median seed-adjusted z-score is inactive: -0.377. Under CUGAUGAGGUGAAACGUGATT against F5 stands inactive: -0.127; under GCUGAUGAGCGGAUCCUUATT against NFATC2, inactive: 0.183. Take CGACUAUGGUUAUGAGCGATT against SORCS1: the median seed-adjusted z-score was inactive: -0.123.

Turning to CCAAUCACCUGGAUAUCGATT against ABCF2, the median seed-adjusted z-score was inactive: 0.0696. Under GAUGUUGGUUUAAAGCGAUTT against PTK2 stands inactive: -0.0806; under CAGGACCGGUUUGAAGUUATT against DDX39, inactive: -0.342. Under GGGUGAAUAUUCUCGACAATT against MYH8 stands inactive: 0.0648; under CAGCUUCGGUGACAAGGAUTT against SNX30, inactive: -0.157; under CGAGAAGCUCAUAACCGAATT against ZCCHC4, inactive: -0.0614. Under GUUCAUAUGUGACAUCUUUTT against ZFP36L1 stands inactive: -0.933; under CAAGUACCCUGAUAGAGUUTT against ABHD4, inactive: -0.054.

Turning to AGAAAAAUCUCAAGGAAAATT against HSPE1, the median seed-adjusted z-score was inactive: 0.0101.

With UGAACAUGCUGAACGAGAATT against MYLK3, the median seed-adjusted z-score is inactive: 0.316. Under GUACGGAAGCAGUAUUAAATT against RBM26 stands inactive: -0.967; under ACCCAUCCUUCAACCCUGATT against PACSIN2, inactive: 0.73; under GGAAGAAGGUUCUCAAACATT against RETSAT, active: -1.7.

Regarding GAAUCGUUGUCAGAGCCUUTT against LMNB1, the median seed-adjusted z-score is inactive: 0.0619. Under GACCGCGUCUUGUACAGAATT against INPP5E stands inactive: -0.0321; under GGUGGACUGUUUUUGCCUATT against B3GNT8, inactive: 0.236. Under GGACUCAGGUCUCAUGUGATT against KRTAP5-7 stands inactive: -0.279.

Consider CUAUCAUACACUAUCCAAATT against RTN4IP1, for which the median seed-adjusted z-score is inactive: -0.00582. As for UCACCAUACCUACAAAAUATT against WFDC5, the median seed-adjusted z-score was inactive: 0. Under AGAUUAUACUUACCGUGAUTT against RBMX stands inactive: 0.0941; under CAAGUACCUGAAAAUGCAATT against RDH5, inactive: 0.305; under GGAUGUUCAAGGCAGCAAATT against ASL, inactive: 0.0344.

Consider ACAACAUCGGGAACGUGUATT against GPSM1, for which the median seed-adjusted z-score was inactive: -0.275. Under CCAUCGCCCUGAACAUCAUTT against FBLN2 stands inactive: 0.176. On to ACCUCUCCCUGACCCUGUATT against PTPN6, for which the median seed-adjusted z-score is inactive: -0.515. Under GCAUCAGGCAAAAUGCAAATT against GPR85 stands inactive: 0.0452; under GCUGCUCCUUGAUACCCGATT against ETV7, inactive: -0.00772. Under GCCCAGUACUUGCUUGUUUTT against LRIG1 stands inactive: 0.102.

CUAUCACUGUUGACCGCUATT against GPR12: the median seed-adjusted z-score is inactive: 0.437.

As for GCACCGCUACUAUAAAUCATT against PRKAG1, the median seed-adjusted z-score is inactive: 0.431. Under CUCCAGUUGUUGACUCUGATT against SNX11 stands inactive: 0.00451. Turning to GCAAUUUCGUGCUCACCAATT against CPXM1, the median seed-adjusted z-score was inactive: 0.147. Under UCAUAUAGGCAAAAUUUAATT against POU3F2 stands inactive: -0.179; under CAAAGUGGAUUCAAAGAUUTT against PRKCH, inactive: 0.761. Under GCUUCGCCUUUGUUAGAGATT against MAP3K4 stands inactive: 0.72. Under CACGAGGACUGGUCCAUUATT against DDX49 stands inactive: 0.0816; under GGGAGAUGCUGGAUACGUATT against GPR137B, inactive: -0.0897. On to GGAUGAGAGUCGCACCUAUTT against SYMPK, for which the median seed-adjusted z-score is inactive: 0.946. Under CAAAAUCGCACAACGAUGATT against GH2 stands inactive: 0.374. In the case of GGAGUGGUGUAGGAGUAAATT against GPR149, the median seed-adjusted z-score is inactive: -0.186.
